Laboratory results published in the supplement of paper PMC8728848.
This is one part of the list.

How the values were obtained:
Assay in all cases: glycan array binding signal (z-score within array); higher = stronger binding
Conditions in all cases: glycan notation: IUPAC condensed, linker removed
[1] = molecular target: Fuc(a1-2)Gal
How it was run: (§1)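 From the Consortium for Functional Glycomics database, 3228 arrays were curated, keeping only those whose protein sequence was available. Binding is given as a within-array Z-score averaged across arrays sharing a protein sequence and across linkers. Negative Z-scores can be read as non-binding.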

[2] = molecular target: Fuc(a1-2)Gal(b1-3)GalNAc
How it was run: as §1

[3] = molecular target: Fuc(a1-2)Gal(b1-3)GalNAc(a1-3)[Fuc(a1-2)]Gal(b1-4)Glc
How it was run: as §1

[4] = molecular target: Fuc(a1-2)Gal(b1-3)GalNAc(a1-3)[Fuc(a1-2)]Gal(b1-4)GlcNAc
How it was run: as §1

[5] = molecular target: Fuc(a1-2)Gal(b1-3)GalNAc(b1-3)Gal
How it was run: as §1

[6] = molecular target: Fuc(a1-2)Gal(b1-3)GalNAc(b1-3)Gal(a1-4)Gal(b1-4)Glc
How it was run: as §1

[7] = molecular target: Fuc(a1-2)Gal(b1-3)GalNAc(b1-4)[Neu5Ac(a2-3)]Gal(b1-4)Glc
How it was run: as §1

[8] = molecular target: Fuc(a1-2)Gal(b1-3)GlcNAc
How it was run: as §1

[9] = molecular target: Fuc(a1-2)Gal(b1-3)GlcNAc(b1-2)Man(a1-3)[Fuc(a1-2)Gal(b1-3)GlcNAc(b1-2)Man(a1-6)]Man(b1-4)GlcNAc(b1-4)GlcNAc
How it was run: as §1

[10] = molecular target: Fuc(a1-2)Gal(b1-3)GlcNAc(b1-2)Man(a1-3)[Fuc(a1-2)Gal(b1-3)GlcNAc(b1-2)Man(a1-6)]Man(b1-4)GlcNAc(b1-4)[Fuc(a1-6)]GlcNAc
How it was run: as §1

[11] = molecular target: Fuc(a1-2)Gal(b1-3)GlcNAc(b1-3)Gal(b1-4)Glc
How it was run: as §1

[12] = molecular target: Fuc(a1-2)Gal(b1-3)GlcNAc(b1-3)GalNAc
How it was run: as §1

[13] = molecular target: Fuc(a1-2)Gal(b1-3)GlcNAc(b1-3)[Fuc(a1-2)Gal(b1-3)GlcNAc(b1-6)]GalNAc
How it was run: as §1

[14] = molecular target: Fuc(a1-2)Gal(b1-3)GlcNAc(b1-3)[Gal(b1-4)GlcNAc(b1-6)]Gal(b1-4)Glc
How it was run: as §1

[15] = molecular target: Fuc(a1-2)Gal(b1-3)GlcNAc(b1-3)[Neu5Ac(a2-6)Gal(b1-4)GlcNAc(b1-6)]Gal(b1-4)Glc
How it was run: as §1

[16] = molecular target: Fuc(a1-2)Gal(b1-3)GlcNAc6S
How it was run: as §1

[17] = molecular target: Fuc(a1-2)Gal(b1-3)[Fuc(a1-4)]GlcNAc
How it was run: as §1

[18] = molecular target: Fuc(a1-2)Gal(b1-3)[Fuc(a1-4)]GlcNAc(b1-2)Man(a1-3)[Fuc(a1-2)Gal(b1-3)[Fuc(a1-4)]GlcNAc(b1-2)Man(a1-3)]Man(b1-4)GlcNAc(b1-4)GlcNAc
How it was run: as §1

[19] = molecular target: Fuc(a1-2)Gal(b1-3)[Fuc(a1-4)]GlcNAc(b1-2)Man(a1-3)[Fuc(a1-2)Gal(b1-3)[Fuc(a1-4)]GlcNAc(b1-2)Man(a1-6)]Man(b1-4)GlcNAc(b1-4)[Fuc(a1-6)]GlcNAc(b1-4)[Fuc(a1-6)]GlcNAc
How it was run: as §1

[20] = molecular target: Fuc(a1-2)Gal(b1-3)[Fuc(a1-4)]GlcNAc(b1-3)[Fuc(a1-3)[Gal(b1-4)]GlcNAc(b1-6)]Gal(b1-4)Glc
How it was run: as §1

[21] = molecular target: Fuc(a1-2)Gal(b1-3)[Fuc(a1-4)]GlcNAc(b1-3)[Gal(b1-4)GlcNAc(b1-6)]Gal(b1-4)Glc
How it was run: as §1

[22] = molecular target: Fuc(a1-2)Gal(b1-4)Fuc(a1-3)]GlcNAc(b1-2)Man(a1-3)[Fuc(a1-2)Gal(b1-4)[Fuc(a1-3)]GlcNAc(b1-2)Man(a1-6)]Man(b1-4)GlcNAc(b1-4)GlcNAc
How it was run: as §1

[23] = molecular target: Fuc(a1-2)Gal(b1-4)Glc
How it was run: as §1

[24] = molecular target: Fuc(a1-2)Gal(b1-4)Glc6S
How it was run: as §1

[25] = molecular target: Fuc(a1-2)Gal(b1-4)GlcNAc
How it was run: as §1

[26] = molecular target: Fuc(a1-2)Gal(b1-4)GlcNAc(b1-2)Man
How it was run: as §1

[27] = molecular target: Fuc(a1-2)Gal(b1-4)GlcNAc(b1-2)Man(a1-3)[Fuc(a1-2)Gal(b1-4)GlcNAc(b1-2)Man(a1-6)]Man(b1-4)GlcNAc(b1-4)GlcNAc
How it was run: as §1

[28] = molecular target: Fuc(a1-2)Gal(b1-4)GlcNAc(b1-2)Man(a1-3)[Fuc(a1-2)Gal(b1-4)GlcNAc(b1-2)Man(a1-6)]Man(b1-4)GlcNAc(b1-4)[Fuc(a1-6)]GlcNAc
How it was run: as §1

[29] = molecular target: Fuc(a1-2)Gal(b1-4)GlcNAc(b1-2)[Fuc(a1-2)Gal(b1-4)GlcNAc(b1-4)]Man(a1-3)[Fuc(a1-2)Gal(b1-4)GlcNAc(b1-2)Man(a1-6)]Man(b1-4)GlcNAc(b1-4)GlcNAc
How it was run: as §1

[30] = molecular target: Fuc(a1-2)Gal(b1-4)GlcNAc(b1-3)Gal(b1-4)GlcNAc
How it was run: as §1

B1: DCIR1 (Mus musculus), Q9QZ15 (protein)
chain: MASEITYAEVKFKNESNSLHTYSESPAAPREKPIRDLRKPGSPSLLLTSLMLLLLLLAITFLVAFIIYFQKYSQLLEEKKAAKNIMHNELNCTKSVSPMEDKVWSCCPKDWRLFGSHCYLVPTVSSSASWNKSEENCSRMGAHLVVIQSQEEQDFITGILDTHAAYFIGLWDTGHRQWQWVDQTPYEESITFWHNGEPSSGNEKCATIIYRWKTGWGWNDISCSLKQKSVCQMKKINL
- glycan array binding signal (z-score) [1]: 0.989
- glycan array binding signal (z-score) [2]: 0.068
- glycan array binding signal (z-score) [3]: -0.877
- glycan array binding signal (z-score) [4]: 0.031
- glycan array binding signal (z-score) [5]: 0.554
- glycan array binding signal (z-score) [6]: 3.31
- glycan array binding signal (z-score) [7]: -0.522
- glycan array binding signal (z-score) [8]: -0.658
- glycan array binding signal (z-score) [9]: -0.098
- glycan array binding signal (z-score) [10]: 3.05
- glycan array binding signal (z-score) [11]: 0.276
- glycan array binding signal (z-score) [12]: -0.4
- glycan array binding signal (z-score) [13]: -0.166
- glycan array binding signal (z-score) [14]: 0.466
- glycan array binding signal (z-score) [15]: -0.587
- glycan array binding signal (z-score) [16]: -0.691
- glycan array binding signal (z-score) [17]: -0.937
- glycan array binding signal (z-score) [18]: 2.59
- glycan array binding signal (z-score) [19]: -0.6
- glycan array binding signal (z-score) [20]: 0.269
- glycan array binding signal (z-score) [21]: -0.366
- glycan array binding signal (z-score) [22]: -0.118
- glycan array binding signal (z-score) [23]: 0.783
- glycan array binding signal (z-score) [24]: 0.633
- glycan array binding signal (z-score) [25]: -0.068
- glycan array binding signal (z-score) [26]: 0.46
- glycan array binding signal (z-score) [27]: -0.079
- glycan array binding signal (z-score) [28]: 0.922
- glycan array binding signal (z-score) [29]: 0.538
- glycan array binding signal (z-score) [30]: -0.313
